Results deposited as PubChem BioAssay AID1259425 (University of Nebraska Medical Center, 2018)
Shown is a random part of about 14,000 reagents tested. Not given: the time to read-out.

- Aim: 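Find knockdowns that reproduce the gene expression pattern seen when KSR1 is lost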 (primary screen)
- System: HCT116 human colon cancer cells
- Reagents: siRNA pool against human genes, 50 nM siRNA
- Read-out: 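mRNA of six signature genes measured together by branched-DNA assay after 50 nM siRNA pool, blank removed, divided by geometric mean of two housekeeping genes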
- Scale: BNIP3L mRNA: higher = more BNIP3L transcript after knockdown; NDRG1 mRNA: higher = more NDRG1 transcript after knockdown; BNIP3 mRNA: higher = more BNIP3 transcript after knockdown; ALDOC mRNA: higher = more ALDOC transcript after knockdown; ACSL5 mRNA: higher = more ACSL5 transcript after knockdown

no.	target gene	BNIP3L mRNA, set 1	NDRG1 mRNA, set 1	BNIP3 mRNA, set 1	ALDOC mRNA, set 1	ACSL5 mRNA, set 1
1	TCF12	0.0809	0.203	0.351	0.00303	0.252
2	SGCD	0.149	0.224	0.377	0.0331	0.246
3	CTNND1	0.0429	0.177	0.225	0.0143	0.23
4	FKBP14	0.0608	0.0847	0.219	0.0304	0.094
5	RAB40B	0.135	0.113	0.391	0.0151	0.169
6	COQ10B	0.0659	0.272	0.407	0.0346	0.166
7	PCDHA3	0.127	0.0313	0.267	0.0126	0.121
8	SLC2A11	2.5	7.23	4.27	0.637	0.279
9	APOB	0.0321	0.13	0.247	0.0236	0.154
10	LAMTOR3	0.0896	0.196	0.332	0.0137	0.0679
11	SLC26A1	0.0348	0.269	0.117	0.0129	0.268

2 entries from above, reformatted:
target gene	BNIP3L mRNA, set 1	NDRG1 mRNA, set 1	BNIP3 mRNA, set 1	ALDOC mRNA, set 1	ACSL5 mRNA, set 1
TCF12	0.0809	0.203	0.351	0.00303	0.252
SGCD	0.149	0.224	0.377	0.0331	0.246

More reagents follow:
no.	target gene	BNIP3L mRNA, set 1	NDRG1 mRNA, set 1	BNIP3 mRNA, set 1	ALDOC mRNA, set 1	ACSL5 mRNA, set 1
12	TLR9	0.118	0.103	0.39	0.024	0.0381
13	DLG2	0.105	0.176	0.343	0.0122	0.112
14	CEP72	0.319	0.566	0.468	0.0373	0.457
15	HERC6	0.0732	0.299	0.334	0.0248	0.336
16	PALMD	0.074	0.17	0.374	0.0729	0.167
17	KIRREL1	0.25	0.431	0.592	0.0207	0.152
18	SLC34A1	0.111	0.359	0.281	0.0531	0.148
19	ZNF436	0.0657	0.163	0.228	0.0302	0.173
20	DDX39A	0.0621	0.192	0.202	0.0135	0.284
21	DDA1	0.14	0.0422	0.252	0.0212	0.28
22	WDR4	0.376	2.09	0.767	0.0802	0.38
23	TRPV4	0.0533	0.229	0.284	0.0484	0.182
24	MBTD1	0.101	0.116	0.45	0.0231	0.253
25	LAP3	0.0869	0.29	0.164	0.0194	0.268
26	SLC25A33	0.138	0.327	0.322	0.0857	0.604
27	HLA-DRB1	0.14	0.23	0.23	0.0264	0.0685
28	KLHL8	0.372	0.477	0.598	0.155	0.444
29	TMA7	0.195	0.225	0.364	0.0295	0.344
30	G3BP1	0.0508	0.0735	0.229	0.0198	0.14
31	CC2D2A	0.101	0.257	0.146	0.0628	0.194
32	LRRC20	0.263	0.429	0.317	0.0455	0.14
33	DCDC2	0.136	0.117	0.238	0.0211	0.104
34	WDR59	0.0912	0.149	0.266	0.0185	0.16
